Some of these results come from one statement about several compounds together.
Columns and labels:
[1] = target: T1, NEP (EC.3.4.24.11) from human kidney (Homo sapiens, UniProt P08473); assay: IC50 against NEP; type: biochemical
T1 construct: determined using NEP (EC.3.4.24.11) from human kidney; from tissue; host or cells: human kidney
Description: IC50 values of the compounds of the invention against NEP and ACE were determined using methods described in published patent application EP1097719-A1, paragraphs [0368] to [0376]. The IC50 values presented below were determined using NEP (EC.3.4.24.11) from human kidney.

Protein sequences, listed by entry. Tags and fused reporters are not part of them. Lines headed by an entry give the natural chain unless they say otherwise; changes in a name come on top. Residues count along the entry.
UniProt P08473: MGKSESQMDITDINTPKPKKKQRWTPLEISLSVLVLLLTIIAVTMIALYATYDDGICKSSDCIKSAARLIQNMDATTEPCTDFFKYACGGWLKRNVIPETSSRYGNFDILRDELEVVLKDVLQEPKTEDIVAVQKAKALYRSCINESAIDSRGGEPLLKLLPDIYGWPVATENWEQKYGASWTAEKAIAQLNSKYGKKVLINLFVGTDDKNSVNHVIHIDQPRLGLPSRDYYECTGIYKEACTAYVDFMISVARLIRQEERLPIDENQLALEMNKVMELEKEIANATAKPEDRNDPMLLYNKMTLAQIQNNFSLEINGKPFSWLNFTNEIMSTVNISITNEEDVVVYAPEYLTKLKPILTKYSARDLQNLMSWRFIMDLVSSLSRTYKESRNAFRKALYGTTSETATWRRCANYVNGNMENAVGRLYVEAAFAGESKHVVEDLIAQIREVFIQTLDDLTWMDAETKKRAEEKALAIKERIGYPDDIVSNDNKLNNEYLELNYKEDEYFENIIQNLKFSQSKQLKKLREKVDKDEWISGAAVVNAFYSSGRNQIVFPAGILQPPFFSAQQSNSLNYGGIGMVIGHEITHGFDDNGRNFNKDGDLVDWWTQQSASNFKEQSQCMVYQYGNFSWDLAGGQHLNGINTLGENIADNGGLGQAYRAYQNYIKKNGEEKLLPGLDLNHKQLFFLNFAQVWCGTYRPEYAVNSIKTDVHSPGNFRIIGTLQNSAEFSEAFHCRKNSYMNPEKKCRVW
UniProt P12821, 30-1306, species assumed: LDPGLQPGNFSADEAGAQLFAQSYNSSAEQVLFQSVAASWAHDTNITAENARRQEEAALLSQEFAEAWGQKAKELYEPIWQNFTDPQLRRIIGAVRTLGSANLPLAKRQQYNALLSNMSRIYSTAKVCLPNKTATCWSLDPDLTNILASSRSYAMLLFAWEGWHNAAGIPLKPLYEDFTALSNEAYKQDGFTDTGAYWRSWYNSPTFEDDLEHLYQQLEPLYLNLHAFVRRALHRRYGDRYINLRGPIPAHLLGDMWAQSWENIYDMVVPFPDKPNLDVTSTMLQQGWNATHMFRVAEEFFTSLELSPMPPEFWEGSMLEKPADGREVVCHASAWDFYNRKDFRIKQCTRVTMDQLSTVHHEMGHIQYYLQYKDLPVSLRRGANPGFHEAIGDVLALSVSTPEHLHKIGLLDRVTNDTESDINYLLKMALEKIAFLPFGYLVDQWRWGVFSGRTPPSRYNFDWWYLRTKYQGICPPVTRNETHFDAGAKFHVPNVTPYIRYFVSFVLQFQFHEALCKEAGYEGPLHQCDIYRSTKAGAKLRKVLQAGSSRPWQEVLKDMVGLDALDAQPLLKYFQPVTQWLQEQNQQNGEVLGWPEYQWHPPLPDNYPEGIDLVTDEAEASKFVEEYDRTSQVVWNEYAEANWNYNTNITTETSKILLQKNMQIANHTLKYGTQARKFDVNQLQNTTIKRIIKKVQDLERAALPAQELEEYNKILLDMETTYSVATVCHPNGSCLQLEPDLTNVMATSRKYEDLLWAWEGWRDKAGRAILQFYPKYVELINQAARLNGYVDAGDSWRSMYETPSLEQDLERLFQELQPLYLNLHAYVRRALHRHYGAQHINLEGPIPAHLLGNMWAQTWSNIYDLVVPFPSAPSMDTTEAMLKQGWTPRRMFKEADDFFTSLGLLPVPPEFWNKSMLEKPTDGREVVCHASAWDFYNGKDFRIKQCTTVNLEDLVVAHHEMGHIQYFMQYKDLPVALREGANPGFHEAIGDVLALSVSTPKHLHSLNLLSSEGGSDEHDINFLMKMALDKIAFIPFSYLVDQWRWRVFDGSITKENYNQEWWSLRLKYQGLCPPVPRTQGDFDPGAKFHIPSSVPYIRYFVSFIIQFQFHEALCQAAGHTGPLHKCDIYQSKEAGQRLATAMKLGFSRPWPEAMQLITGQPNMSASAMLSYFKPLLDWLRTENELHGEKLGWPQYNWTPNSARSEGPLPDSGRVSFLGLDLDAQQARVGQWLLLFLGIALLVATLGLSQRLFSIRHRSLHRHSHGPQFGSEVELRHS

ACE = ACE (Homo sapiens, UniProt P12821); assay: IC50 against ACE (selectivity over ACE); type: biochemical; conditions: NEP versus ACE

IC50 [1] [nM]	selectivity over ACE (ACE)	Structure (SMILES)
≤ 50	greater than 300 fold	CCC[C@H](CC1(C(=O)N[C@H](COCc2cccc(F)c2)CC(=O)O)CCCC1)C(=O)O [Example 1, (2R)-2-[(1-{[((1S)-2-Carboxy-1-{[(3-fluorobenzyl)oxy]methyl}ethyl)amino]-carbonyl}cyclopentyl)methyl]pentanoic Acid]
≤ 50	greater than 300 fold	CCC[C@H](CC1(C(=O)N[C@@H](COCc2ccc(Cl)cc2)CC(=O)O)CCCC1)C(=O)O [Example 5, (2R)-2-[(1-{[((1R)-2-Carboxy-1-{[(4-chlorobenzyl)oxy]methyl}ethyl)amino]-carbonyl}cyclopentyl)methyl]pentanoic Acid]
≤ 50	greater than 300 fold	CCC[C@H](CC1(C(=O)N[C@@H](COCc2cccc(OC)c2)CC(=O)O)CCCC1)C(=O)O [Example 7, (2R)-2-[(1-{[((1R)-2-Carboxy-1-{[(3-methoxybenzyl)oxy]methyl}ethyl)amino]-carbonyl}cyclopentyl)methyl]pentanoic Acid]
≤ 50	greater than 300 fold	COCC[C@H](CC1(C(=O)N[C@H](COCc2cccc(OC)c2)CC(=O)O)CCCC1)C(=O)O [Example 10, (2S)-2-[(1-{[((1S)-2-Carboxy-1-{[(3-methoxybenzyl)oxy]methyl}ethyl)amino]-carbonyl}cyclopentyl)methyl]-4-methoxybutanoic Acid]
≤ 50	greater than 300 fold	COCC[C@H](CC1(C(=O)N[C@H](COCc2cccc(Cl)c2)CC(=O)O)CCCC1)C(=O)O [Example 12]
≤ 50	greater than 300 fold	COCC[C@H](CC1(C(=O)N[C@H](COCc2ccccc2Cl)CC(=O)O)CCCC1)C(=O)O [Example 13]
≤ 50	greater than 300 fold	COCC[C@H](CC1(C(=O)N[C@H](COCc2ccc(F)c(F)c2)CC(=O)O)CCCC1)C(=O)O [Example 14]
≤ 50	greater than 300 fold	COCC[C@H](CC1(C(=O)N[C@H](COCc2ccc(F)cc2F)CC(=O)O)CCCC1)C(=O)O [Example 15]
≤ 50	greater than 300 fold	COCC[C@H](CC1(C(=O)N[C@@H](COCc2ccc(Cl)cc2)CC(=O)O)CCCC1)C(=O)O [Example 16, (2S)-2-[(1-{[((1R)-2-Carboxy-1-{[(4-chlorobenzyl)oxy]methyl}ethyl)amino]-carbonyl}cyclopentyl)methyl]-4-methoxybutanoic Acid]
≤ 50	greater than 300 fold	CCC[C@H](CC1(C(=O)N[C@H](COCc2ccccc2)CC(=O)O)CCCC1)C(=O)O [Example 31, (2R)-2-{[1-({[(1S)-2-(Benzyloxy)-1-(carboxymethyl)ethyl]amino}carbonyl)-cyclopentyl]methyl}pentanoic Acid]
≤ 50	greater than 300 fold	CCC[C@H](CC1(C(=O)N[C@H](COCc2cccc(OC)c2)CC(=O)O)CCCC1)C(=O)O [Example 32, (2R)-2-[(1-{[((1S)-2-Carboxy-1-{[(3-methoxybenzyl)oxy]methyl}ethyl)amino]carbonyl}-cyclopentyl)methyl]pentanoic Acid]
≤ 50	greater than 300 fold	CCC[C@H](CC1(C(=O)N[C@H](CCOc2cccc(Cl)c2)CC(=O)O)CCCC1)C(=O)O [Example 36]

The next lines start with the compound.

Structure (SMILES)	IC50 [1] [nM]	selectivity over ACE (ACE)
CCC[C@H](CC1(C(=O)N[C@H](COCc2ccc(C(F)(F)F)cc2)CC(=O)O)CCCC1)C(=O)O [Example 4]	≤ 50	greater than 300 fold
CCC[C@H](CC1(C(=O)N[C@H](CCOc2ccc(F)cc2)CC(=O)O)CCCC1)C(=O)O [Example 34]	≤ 50	greater than 300 fold
CCC[C@H](CC1(C(=O)N[C@H](CCOc2ccc(OC)cc2)CC(=O)O)CCCC1)C(=O)O [Example 37]	≤ 50	greater than 300 fold
CCC[C@H](CC1(C(=O)N[C@H](CCOc2cccc(OC)c2)CC(=O)O)CCCC1)C(=O)O [Example 38]	≤ 50	greater than 300 fold
CCC[C@H](CC1(C(=O)N[C@H](CCOc2ccccc2OC)CC(=O)O)CCCC1)C(=O)O [Example 39]	≤ 50	greater than 300 fold
CCC[C@H](CC1(C(=O)N[C@H](CCOc2ccc(C)cc2)CC(=O)O)CCCC1)C(=O)O [Example 40]	≤ 50	greater than 300 fold
CCC[C@H](CC1(C(=O)N[C@@H](CCOc2ccc(Cl)cc2)CC(=O)O)CCCC1)C(=O)O [Example 41, (3S)-3-[({1-[(2R)-2-Carboxypentyl]cyclopentyl}carbonyl)amino]-5-(4-chlorophenoxy)pentanoic Acid]	≤ 50	greater than 300 fold
CCC[C@H](CC1(C(=O)N[C@@H](CCOc2ccc(F)cc2)CC(=O)O)CCCC1)C(=O)O [Example 42, (3S)-3-[({1-[(2R)-2-Carboxypentyl]cyclopentyl}carbonyl)amino]-5-(4-fluorophenoxy)-pentanoic Acid]	≤ 50	greater than 300 fold
CCC[C@H](CC1(C(=O)N[C@@H](CCOc2ccc(C)cc2)CC(=O)O)CCCC1)C(=O)O [Example 44]	≤ 50	greater than 300 fold
COCC[C@H](CC1(C(=O)N[C@H](CCOc2ccc(Cl)cc2)CC(=O)O)CCCC1)C(=O)O [Example 46, (3R)-3-[({1-[(2S)-2-Carboxy-4-methoxybutyl]cyclopentyl}carbonyl)amino]-5-(4-chlorophenoxy)pentanoic Acid]	≤ 50	greater than 300 fold
COCC[C@H](CC1(C(=O)N[C@@H](CCOc2ccc(Cl)cc2)CC(=O)O)CCCC1)C(=O)O [Example 48, (3S)-3-[({1-[(2S)-2-Carboxy-4-methoxybutyl]cyclopentyl}carbonyl)amino]-5-(4-chlorophenoxy)pentanoic Acid]	≤ 50	greater than 300 fold
COCC[C@H](CC1(C(=O)N[C@@H](CCCc2ccc(Cl)cc2)CC(=O)O)CCCC1)C(=O)O [Example 53, (3S)-3-[({1-[(2S)-2-carboxy-4-methoxybutyl]cyclopentyl}carbonyl)amino]-6-(4-chlorophenyl)hexanoic Acid]	≤ 50	greater than 300 fold
COCC[C@H](CC1(C(=O)N[C@@H](CCCc2ccc(OC)cc2)CC(=O)O)CCCC1)C(=O)O [Example 54, (3S)-3-[({1-[(2S)-2-carboxy-4-methoxybutyl]cyclopentyl}carbonyl)amino]-6-(4-methoxyphenyl)hexanoic Acid]	≤ 50	greater than 300 fold

From patent publication US7045653B2, “Pharmaceuticals” (Pfizer, Inc., priority 2003, dated 2006)
